Measured values: US8026368B2, “Hydrazide compounds and thrombopoietin receptor activators” (Nissan Chemical Industries, Ltd., priority 2005, dated 2011)
The structures given here were assigned with low confidence; some may be wrong.

By UniProt entry, the sequences of proteins in these tests, tags left out. Residues count along the entry.
UniProt P40238, 26-635 limits assumed: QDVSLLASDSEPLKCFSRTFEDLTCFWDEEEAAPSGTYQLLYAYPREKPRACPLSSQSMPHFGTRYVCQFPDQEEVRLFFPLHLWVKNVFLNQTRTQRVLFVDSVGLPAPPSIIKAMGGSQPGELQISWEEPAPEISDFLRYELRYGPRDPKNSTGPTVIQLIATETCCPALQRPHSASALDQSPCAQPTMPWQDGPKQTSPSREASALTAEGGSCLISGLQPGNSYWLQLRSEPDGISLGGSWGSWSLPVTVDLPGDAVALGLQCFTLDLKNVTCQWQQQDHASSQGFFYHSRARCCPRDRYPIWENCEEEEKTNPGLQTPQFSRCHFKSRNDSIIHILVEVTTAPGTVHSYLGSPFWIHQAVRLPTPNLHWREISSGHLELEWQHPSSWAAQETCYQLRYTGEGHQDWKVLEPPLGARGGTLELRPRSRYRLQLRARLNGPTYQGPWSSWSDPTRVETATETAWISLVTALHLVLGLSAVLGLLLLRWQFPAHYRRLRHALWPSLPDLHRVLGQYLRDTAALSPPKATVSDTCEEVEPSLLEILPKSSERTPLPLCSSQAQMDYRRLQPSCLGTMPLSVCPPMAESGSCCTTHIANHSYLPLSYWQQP

Target: human thrombopoietin receptor (c-mpl) (Homo sapiens, UniProt P40238)
Test: Stimulation of proliferation of thrombopoietin-dependent cell line UT7/EPO-mpl (WST-8)
Conditions: human leukemic cell line UT-7/EPO-mpl, 4 days incubation, WST-8, relative to 10 ng/mL TPO
Procedure: The responses of thrombopoietin receptor to the compounds of the present invention prepared in the Synthetic Examples were assayed using a human leukemic cell line, UT7/EPO-mpl.
UT7/EPO-mpl is a stable transformed cell line obtained by introducing into human leukemic cell line UT7/EPO a vector that induces expression of human thrombopoietin receptor (c-mpl) under control of cytomegalovirus immediate-early promoter by the method of Takatoku et al. (J. Biol. Chem., 272:7259-7263 (1997)). […] These two cell lines were subcultured in IMDM (GIBCO) containing 10% fetal bovine serum (Thermo Electron or BioWest) using a CO2 incubator (5% CO2, 37° C.).
The subcultured cells described above were washed twice with PBS and suspended in IMDM containing 10% fetal bovine serum at a cell density of 6×10^4 cells/ml. The cell suspension was transferred to a 96-well tissue culture plate (CORNING) in 100-μl aliquots. Then either thrombopoietin (Pepro Tech EC) or the compounds of the Synthetic Examples dissolved in dimethyl sulfoxide were diluted 83-fold with IMDM containing 10% fetal bovine serum and added to the aforementioned cell suspension in 20-μl aliquots. The cell suspension was incubated in a CO2 incubator (5% CO2, 37° C.) for 4 days. […] The formazan pigment generated was detected by measuring the absorbance at 450 nm with a 96-well microplate reader (Nihon Molecular Devices, Spectramax 190). […]

## CC1=NN(c2ccc(C)c(C)c2)C(=O)/C1=C(/C)NNC(=O)c1ccc(C(=O)N2CCC(N3CCCC3)CC2)s1
  EC50 (concentration that yields a growth rate corresponding to 50% of the growth observed in the presence of 10 ng/mL TPO): 3.2 ng/mL
